Laboratory results as given in PubChem BioAssay AID590 (National Center for Advancing Translational Sciences (NCATS), 2007).
“And” between values parts separate entries of the source, which are not always exact repeats. Equal entries are not always repeated. Hit rate of the full screen: of about 59,000 compounds, about 6,500 (11%) were called active. Inconclusive results, whose numbers are uncertain, are shown with a selection of clear calls. Cut-off read from the data, not from the text of the source: active = max dye-equivalent concentration above about 10 nM; inconclusive = mostly about 1.1 nM to 9.6 nM; inactive = weaker than that.

test: qHTS Assay for Spectroscopic Profiling in A350 Spectral Region; conditions: Compound autofluorescence, 340/450 nm, Alexa 350 dye-equivalents; hits give high values

| SMILES | max dye-equivalent concentration |
| --- | --- |
| Cc1nnc(SCc2ccc(Cl)cc2)n1CC1CCCO1 (configuration not stated) | inconclusive: 1.6e-09 M |
| COC(=O)c1cc(OC)c(OC)cc1NC(=O)CCCCCN1C(=O)CCC1=O | inconclusive: 2.3e-09 M |
| COc1ccc(Cl)c(Cn2c(NCCCO)nc3c2c(=O)n(C)c(=O)n3C)c1 | inactive |
| O=C(Nc1cccnc1)C1OCCc2ccccc21 (configuration not stated) | inconclusive: 1.4e-09 M |
| COc1ccc(-c2cc(C(=O)O)[nH]n2)cc1OC | inactive |
| O=C(c1cc(C(F)(F)F)cc(C(F)(F)F)c1)N1CCC2(CC1)CN(Cc1ccncc1)C2 | inactive |
| COc1ccc(CCNC(=O)c2nn(C)cc2Cl)cc1 | active: 1.7e-08 M |
| Cn1c(O)c(C=Nc2ccc(Cc3ccncc3)cc2)c(=O)n(C)c1=O | inconclusive: 6.5e-09 M |
| O=C(O)c1ncn(Cc2ccccc2)c1C(=O)O | inconclusive: 2.4e-09 M |
| COc1ccccc1CN(Cc1cc2cc(C)ccc2[nH]c1=O)Cc1nnnn1Cc1ccco1 | active: 1.3e-08 M |
| Cc1cc(C(=O)Nc2nc3c(s2)CCCC3)no1 | inconclusive: 1.1e-09 M |
| O=C(NC1CCCCC1)C(c1ccncc1)N(CC1CCCO1)C(=O)C(F)(F)F (configuration not stated) | inconclusive: 1.1e-09 M |
| COc1ccc(-c2nc(C#N)c(NCCc3ccccc3)o2)cc1OC | inconclusive: 9.4e-09 M |
| COC(=O)NCc1cc2cc(Cl)ccc2[nH]1 | inconclusive: 1.2e-09 M |
| C/C(=N/O)c1ccc2cc(Br)c3ccccc3c2c1 | inactive |
| Cc1ccc(OCC(=O)Nc2ccc(O)c(C(=O)O)c2)cc1C | inconclusive: 6.8e-09 M |
| COc1ccc(Oc2ncc3nc(-c4cccc(C#N)c4)c(=O)n(CCC#N)c3n2)cc1 | inconclusive: 2e-09 M |
| CC(C)N(C)C1CCN(C(=O)Nc2ccc(Cl)c(Cl)c2)CC1 | inconclusive: 4.9e-09 M |
| COc1ccccc1Cc1noc(C(C)(C)NC(=O)c2ccccc2)n1 | inconclusive: 1.7e-09 M |
| O=C(OC(C(=O)NCC1CCCO1)c1ccccc1F)c1ccco1 (configuration not stated) | inconclusive: 3.1e-09 M |
| COc1ccc(-c2nc3cnc(Oc4ccccc4)nc3n(CCC#N)c2=O)cc1 | active: 1.9e-08 M |
| O=c1ccc2cc3ccoc3cc2o1 | active: 2e-08 M |
| CC(=O)NCCOc1cccc(OCCNC(C)=O)c1 | inconclusive: 2.4e-09 M |

| SMILES | max dye-equivalent concentration |
| --- | --- |
| CC1CCCCN1C(=O)CSc1nc(C2CC2)nc2c1cnn2-c1ccccc1 (configuration not stated) | inconclusive: 1.3e-09 M |
| CN1CCN(CCCNC(=O)Cn2nc(-c3ccccc3)ccc2=O)CC1 | inconclusive: 1.1e-09 M |
| O=C(Nc1nc(-c2ccc(S(=O)(=O)N3CCCC3)cc2)cs1)c1cccs1 | inconclusive: 7.1e-09 M |
| COc1ccc(CCNS(=O)(=O)c2ccc(F)cc2)cc1OC | inactive |
| CCCCN(CCCC)CCNC(=O)Cc1nc2c(c(=O)[nH]c(=O)n2C)n1C | inactive |
| COc1ncc2nc(-c3ccc(Cl)cc3)c(=O)n(-c3ccccc3)c2n1 | inconclusive: 9e-09 M |
| c1csc(C2C3=C(Nc4ncnn42)c2ccccc2OC3)c1 (configuration not stated) | active: 2.2e-07 M |
| CC(=O)N1CCC[C@@]2(CCN(C(=O)Nc3ccccc3)C2)C1 | inactive |
| O=C(Cc1cn2ccsc2n1)Nc1ccccc1Oc1ccccc1 | inconclusive: 1.5e-09 M |
| O=C(Nc1ccc2c(c1)Cc1ccccc1-2)c1ccco1 | inconclusive: 9.1e-09 M |
| O=C(c1cccs1)N1CCN(Cc2ccncc2)CC1 | inconclusive: 4.1e-09 M |
| COCC(=O)N1CCC[C@@]2(CCN(c3ncccn3)C2)C1 | inactive |
| Oc1ccc2ccccc2c1/C=N/n1cnnc1 | inconclusive: 8.3e-09 M |
| Cc1cccc2c1nc(-c1ccccc1)n1cnnc21 | inactive |
| CCOc1ccc2cc(S(=O)(=O)N3CCN(C)CC3)ccc2c1 | inconclusive: 2e-09 M |
| Cc1occc1-c1nnc(SCC(=O)N2CCN(c3ccccc3F)CC2)n1C | inactive |
| COc1ccc(C(=O)CSc2nccc(=O)[nH]2)cc1 | inactive |
| c1ccc(-n2ncc3c(NCCN4CCCCC4)ncnc32)cc1 | inactive |
| CC(=O)NCCNc1nc(-c2ccc3c(c2)OCO3)nc2ccccc12 | inactive |
| Cc1nc2cnc(N3CCOCC3)nc2n(Cc2ccc(F)cc2)c1=O | inconclusive: 4e-09 M |
| CCc1ccccc1N(C(=O)Cn1nnc2ccccc21)C(C(=O)NCCOC)c1ccco1 (configuration not stated) | inactive |
| CCOC(=O)C1CCN(C(=O)c2cnn3c(C)cc(C)nc23)CC1 | inconclusive: 6.6e-09 M |
| CC(C)(C)c1cc(-c2ccco2)c(C#N)c(SCC#N)n1 | active: 2.2e-08 M |

Given with tabs: seven of the compounds above
SMILES	max dye-equivalent concentration
CCCCN(CCCC)CCNC(=O)Cc1nc2c(c(=O)[nH]c(=O)n2C)n1C	inactive
COc1ncc2nc(-c3ccc(Cl)cc3)c(=O)n(-c3ccccc3)c2n1	inconclusive: 9e-09 M
c1csc(C2C3=C(Nc4ncnn42)c2ccccc2OC3)c1 (configuration not stated)	active: 2.2e-07 M
CC(=O)N1CCC[C@@]2(CCN(C(=O)Nc3ccccc3)C2)C1	inactive
O=C(Cc1cn2ccsc2n1)Nc1ccccc1Oc1ccccc1	inconclusive: 1.5e-09 M
O=C(Nc1ccc2c(c1)Cc1ccccc1-2)c1ccco1	inconclusive: 9.1e-09 M
O=C(c1cccs1)N1CCN(Cc2ccncc2)CC1	inconclusive: 4.1e-09 M

(next part)

| SMILES | max dye-equivalent concentration |
| --- | --- |
| COc1cc(C2C3=C(CC(C)(C)CC3=O)Nc3c2c(=O)[nH]c(=O)n3Cc2ccccc2)ccc1O (configuration not stated) | active: 3.4e-08 M and active: 4.4e-08 M |
| Cc1cc(C)c2cc(C#N)c(SCC(=O)NCc3ccco3)nc2c1 | inconclusive: 6.9e-09 M |
| Clc1ccccc1/C=C\c1ccnc2ccccc12 | inconclusive: 2.5e-09 M |
| CN1CCc2c(sc3c2C(=O)NC(c2ccc4c(c2)OCO4)N3)C1 (configuration not stated) | inconclusive: 5.9e-09 M |
| Cc1ccc(-c2nn(C)c(=O)c3ccccc23)cc1CN1CCOCC1 | inconclusive: 1.6e-09 M |
| CC(C)(C)NC(=O)C(c1ccco1)N(Cc1ccc(F)cc1)C(=O)c1snc(C(N)=O)c1N (configuration not stated) | active: 2.2e-07 M |
| CCN(CC)S(=O)(=O)c1cccc(C(=O)Nc2cc(C)nn2-c2nc(C)cc(C)n2)c1 | inactive |
| CC(C)c1ccc(NC(=O)N2CCC(c3nc4ccccc4o3)CC2)cc1 | inactive |
| Cc1ccc(SCc2[nH]nc3c2C(c2cccnc2)C(C#N)=C(N)O3)cc1 (configuration not stated) | inconclusive: 2.3e-09 M |
| COc1ccc(N2CCN(C(=O)c3cc4c(-c5cccc(OC)c5)nn(C)c4s3)CC2)cc1 | inconclusive: 1.7e-09 M |
| CCOC(=O)CCCOC(=O)c1ccc(S(=O)(=O)N(C)C)cc1 | inconclusive: 1.7e-09 M |
| O=c1oc2c3c4c(cc2c(C(F)(F)F)c1CCN1CCOCC1)CCCN4CCC3 | inconclusive: 8.9e-09 M |
| COc1cc2c(cc1OC)C(c1ccc3c(c1)OCO3)C1=C(CC(C)(C)CC1=O)N2 (configuration not stated) | active: 1e-07 M |
| Cc1ccc(-c2nn[nH]n2)o1 | inconclusive: 5.5e-09 M |
| CC(=O)C1=C(O)CCC1=N | inconclusive: 5.5e-09 M |
| CCN(C(=O)c1cccs1)c1nnc(-c2ccncc2)s1 | inconclusive: 1.3e-09 M |
| COc1ccc2[nH]c(=O)c(CN(CCN(C)C)C(=O)NCc3ccccc3)cc2c1 | active: 2.6e-07 M |
| COc1cccc(-c2cc(C(=O)Nc3cnn(Cc4ccccc4C)c3)no2)c1 | inconclusive: 1.5e-09 M |
| COc1ccc(CC(=O)N(Cc2cc3cc(OC)ccc3[nH]c2=O)C(C)C)cc1 | active: 2.8e-07 M |
| C/C(=N/O)[C@@H]1C[C@H](CC(=O)O)C1(C)C | inactive |
| Cc1ccc(C)n1CCN1CCN(CC(=O)Nc2cc(C(F)(F)F)ccc2Cl)CC1 | inactive |
| COc1cccc(C(=O)Nc2ncc3c(n2)CC(C)CC3=O)c1 (configuration not stated) | inconclusive: 3.7e-09 M |
| NC(N)=N/N=C(\c1ccc(Cl)cc1)C1CC1 | inactive |

| SMILES | max dye-equivalent concentration |
| --- | --- |
| Cc1ccccc1NC(=O)c1c(-c2ccccc2)noc1C | inconclusive: 1.3e-09 M |
| Cc1cc(NC(=O)COn2nnc3ccccc32)no1 | inactive |
| Cc1cc(NC(=O)COC(=O)c2n[nH]c3ccccc23)no1 | inconclusive: 1.1e-09 M |
| Cc1ccc(C2CC(=O)c3cnc(N4CCN(c5ccccc5)CC4)nc3C2)cc1 (configuration not stated) | active: 1.8e-08 M |
| CC(=O)NCCNc1ncnc2ccc(-c3ccc(C(=O)N(C)C)cc3)cc12 | inconclusive: 1.3e-09 M |
| N=C1C(c2nc3ccccc3[nH]2)=C(O)CN1c1ccccc1 | inactive |
| COc1ccccc1-c1oc2ccccc2c(=O)c1OC | inconclusive: 2e-09 M |
| CCCc1cc(C(N)=S)ccn1 | inconclusive: 1.2e-09 M |
| O=C(C1CCC(=O)N1C1CCCCC1)N1CCN(c2ccc(F)cc2)CC1 (configuration not stated) | inconclusive: 1.2e-09 M |
| CCN(C(=O)CN1CCN(c2ccccc2)CC1)c1c(N)n(Cc2ccccc2)c(=O)[nH]c1=O | inconclusive: 5.7e-09 M |
| CN(c1ccccc1C(=O)O)S(C)(=O)=O | inactive |
| CCOC(=O)c1ccc(NC(=O)CSc2nnc(-c3cccs3)n2C)cc1 | active: 6.3e-07 M |
| COc1ccc(Oc2ncc3nc(-c4ccccc4)c(=O)n(C4CC4)c3n2)cc1 | inconclusive: 2.2e-09 M |
| O=C(CNCC1CCCO1)Nc1ccc(N2CCCCCC2)cc1 (configuration not stated) | inactive |
| O=C(Nc1nc(-c2ccc3c(c2)OCCO3)cs1)c1ccc(S(=O)(=O)N2CCCCC2)cc1 | active: 4.3e-08 M |
| Cc1nc(Cl)sc1C(=O)O | active: 4.6e-08 M |
| Cc1ccc(SCN2CCCCC2)cc1 (tested in a mixture with another compound) | inconclusive: 4.9e-09 M |
| Cc1cccc(/N=C/c2c(O)cc(C)oc2=O)n1 | inconclusive: 8.1e-09 M |
| O=S(=O)(c1ccc2c(c1)C(=NO)c1cc(S(=O)(=O)N3CCCCC3)ccc1-2)N1CCCCC1 | active: 3.1e-08 M |
| COCCn1c(=O)c(-c2ccc(OC)cc2)nc2cnc(Oc3ccc(OC)cc3)nc21 | inconclusive: 1.7e-09 M |
| CCOC(=O)C1=C(C)Nc2nc(SC)nn2C1c1ccc(C(=O)OC)cc1 (configuration not stated) | inconclusive: 1.5e-09 M |
| N#Cc1nc(N2CCCCC2)nc(N2CCOCC2)n1 | inconclusive: 2.4e-09 M |
| CCOc1ccccc1Nc1nnc(SCC(=O)N2CCCC2)s1 | active: 1.9e-08 M |
